Results are given in words; binding and its absence hold for the method and conditions named. Some results given as binding are weak or reduced against the parent protein; the word gives no strength. Where a sequence is shown, tags or fusion partners need not be part of it.
Biological target: T1, Irga6 (GST tag cleaved off) (mouse) (UniProt Q9QZ85)
T1 sequence: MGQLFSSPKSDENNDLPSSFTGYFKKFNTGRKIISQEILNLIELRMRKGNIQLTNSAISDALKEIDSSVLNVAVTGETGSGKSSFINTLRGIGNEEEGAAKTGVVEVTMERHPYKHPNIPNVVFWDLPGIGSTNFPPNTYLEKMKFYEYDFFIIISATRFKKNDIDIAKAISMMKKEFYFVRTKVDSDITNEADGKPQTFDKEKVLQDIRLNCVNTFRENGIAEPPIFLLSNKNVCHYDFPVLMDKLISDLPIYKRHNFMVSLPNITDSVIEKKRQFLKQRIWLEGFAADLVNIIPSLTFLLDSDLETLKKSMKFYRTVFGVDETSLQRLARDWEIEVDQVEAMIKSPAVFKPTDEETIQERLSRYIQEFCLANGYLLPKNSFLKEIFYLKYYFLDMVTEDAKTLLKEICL
Assay: dynamic light scattering; GTP-dependent oligomerization of Irga6 with ROP5BIII; unpublished data

ROP5BIII (from UniProt F2YGR7 25-549) was tested, and the binding was “binds”.

Reference: article PMC3393671
